Drawing on paper PMC10786037, “Autoinhibition in the Signal Transducer CIN85 Modulates B Cell Activation” (Journal of the American Chemical Society, 2023), this text covers binding for three molecules.

For assay [1], the target named is CIN85_(1-333) (human) (UniProt Q96B97). The experiment in a line: NMR relaxation (TRACT rotational correlation times) and translational diffusion (N-TRO-STE) against protein concentration; protein concentration 0.05 to 1.16 mM; 800 MHz, 298 K; 15N-labelled, perdeuterated protein; both purified.
Assay [2] deals with CIN85_(1-333)-R229A (human) (UniProt Q96B97). The assay is described as above.
Assay [3] deals with T1, CIN85 SH3C domain (human, UniProt Q96B97-1 262-333).
T1 construct: the NMR structure PDB 2k9g of SH3C was used to map the shifts; 15N-labelled for NMR; The limits of PDB 2k9g may differ from those of the construct; also called C-terminal SH3 domain
T1 sequence: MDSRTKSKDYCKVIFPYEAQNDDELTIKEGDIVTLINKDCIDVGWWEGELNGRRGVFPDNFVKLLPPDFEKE
Description: NMR titration; 15N-labelled isolated SH3 domain titrated with synthetic 14-residue peptide; chemical shift perturbations; KD fitted, error by bootstrap resampling; both purified.

These are yes or no findings as the source states them, for the method shown. Some results given as binding are weak or reduced against the parent protein; the word gives no strength.

As for “CIN85_(1-333) (from UniProt Q96B97-1 1-333) (domain or fragment)”, in assay [1], the binding result is recorded as “binds weakly”.

As for “CIN85_(1-333)-R229A (from UniProt Q96B97-1 1-333) (domain or fragment)”, the binding entry in assay [2] was “binds weakly”.

B1: CIN85-PRM1 peptide R227A/R229A (residues 219-232) (peptide)
peptide: FKDKPIKLAPASIE
notes: CIN85, human, residues 219-232 with R227A and R229A; also called R227A/R229A mutant peptide; source: synthetic peptide
On to B1, for which the binding result in assay [3] is recorded as “no binding (tested: ≫2.45 mM)”.
